In this assay the target is His-MBP-UBN1^1-175 (UniProt Q9NPG3). Description: pull-down; purified His-MBP fusion incubated with 1.5 mg whole cell lysate of Raji or DT40 ψV KO in 1X PBS, 6 h at 4 °C; Ni-NTA beads; washes with 200 mM NaCl, 50 mM imidazole; western blot with anti-AID mAb or anti-UBN1 pAb; only the target purified. On the technique in general: A western blot detects proteins with antibodies after separation by electrophoresis.

Chains of the proteins cited; added tags and fusions are not shown. Residues count along the entry.
UniProt Q9NPG3, residues 1-175: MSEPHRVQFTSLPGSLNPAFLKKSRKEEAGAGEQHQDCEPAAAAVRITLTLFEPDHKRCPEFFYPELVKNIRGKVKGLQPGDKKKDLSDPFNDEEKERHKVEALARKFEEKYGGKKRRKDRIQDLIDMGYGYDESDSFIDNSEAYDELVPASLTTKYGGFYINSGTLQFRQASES

These are yes or no findings as the source states them, for the method shown. In cells and extracts the contact can be indirect. Some binding calls cover weakened binding; strength is not graded here.

B1: Activation-induced cytidine deaminase (AID), endogenous in DT40 ψV KO cells (enzyme, UniProt E1BVI0 1-198)
chain: MDSLLMKRKLFLYNFKNLRWAKGRRETYLCYVVKRRDSATSCSLDFGYLRNKMGCHVEVLFLRYISAWDLDPGRCYRITWFTSWSPCYDCARHVADFLRAYPNLTLRIFTARLYFCEDRKAEPEGLRRLHRAGAQIAIMTFKDFFYCWNTFVENREKTFKAWEGLHENSVHLSRKLRRILLPLYEVDDLRDAFKTLGL
As for B1, the binding result is on record as “binds”.

The values are drawn from paper PMC10638239.
